PMC7948406

Sequences of proteins named here, by UniProt entry; tags and fusion partners are left off. A change or cut given only in a name is not applied to a line headed by its entry.
UniProt E9Q2Z1: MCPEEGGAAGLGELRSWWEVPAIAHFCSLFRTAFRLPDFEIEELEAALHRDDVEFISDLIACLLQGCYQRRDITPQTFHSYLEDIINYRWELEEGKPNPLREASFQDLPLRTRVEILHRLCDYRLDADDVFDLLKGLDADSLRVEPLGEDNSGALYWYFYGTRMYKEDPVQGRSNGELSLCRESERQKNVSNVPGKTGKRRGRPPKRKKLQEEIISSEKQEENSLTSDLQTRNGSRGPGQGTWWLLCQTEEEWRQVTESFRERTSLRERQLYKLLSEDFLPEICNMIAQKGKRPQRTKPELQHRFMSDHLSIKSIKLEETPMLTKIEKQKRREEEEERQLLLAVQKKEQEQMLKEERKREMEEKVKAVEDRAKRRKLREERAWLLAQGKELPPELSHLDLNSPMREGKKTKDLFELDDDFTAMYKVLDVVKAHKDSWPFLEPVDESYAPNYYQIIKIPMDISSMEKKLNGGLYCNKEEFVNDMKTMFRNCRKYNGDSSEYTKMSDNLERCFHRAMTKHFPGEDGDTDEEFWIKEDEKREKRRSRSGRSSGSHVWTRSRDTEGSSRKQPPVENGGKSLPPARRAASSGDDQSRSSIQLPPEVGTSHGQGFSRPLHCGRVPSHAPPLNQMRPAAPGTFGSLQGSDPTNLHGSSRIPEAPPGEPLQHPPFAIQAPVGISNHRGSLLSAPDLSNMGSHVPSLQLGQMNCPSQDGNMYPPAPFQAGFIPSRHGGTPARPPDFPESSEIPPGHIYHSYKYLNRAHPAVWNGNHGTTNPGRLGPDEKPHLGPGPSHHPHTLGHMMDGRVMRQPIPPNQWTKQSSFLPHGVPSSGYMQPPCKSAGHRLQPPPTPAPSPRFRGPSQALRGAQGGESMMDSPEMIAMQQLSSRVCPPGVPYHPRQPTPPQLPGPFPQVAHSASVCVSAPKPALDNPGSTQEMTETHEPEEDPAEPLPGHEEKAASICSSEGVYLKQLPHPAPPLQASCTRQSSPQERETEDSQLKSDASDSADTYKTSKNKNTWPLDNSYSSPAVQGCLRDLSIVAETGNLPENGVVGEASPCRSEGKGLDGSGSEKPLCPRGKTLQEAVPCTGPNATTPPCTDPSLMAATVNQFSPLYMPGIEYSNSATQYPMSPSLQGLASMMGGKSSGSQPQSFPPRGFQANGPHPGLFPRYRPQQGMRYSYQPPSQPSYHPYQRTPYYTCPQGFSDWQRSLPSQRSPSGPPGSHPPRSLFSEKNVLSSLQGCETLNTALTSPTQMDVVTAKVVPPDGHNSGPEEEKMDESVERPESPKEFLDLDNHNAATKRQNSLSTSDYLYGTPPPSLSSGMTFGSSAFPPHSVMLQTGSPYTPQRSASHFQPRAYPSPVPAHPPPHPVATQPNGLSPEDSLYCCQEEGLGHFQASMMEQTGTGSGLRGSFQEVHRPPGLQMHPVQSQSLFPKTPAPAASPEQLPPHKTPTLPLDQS
UniProt Q6PGB8: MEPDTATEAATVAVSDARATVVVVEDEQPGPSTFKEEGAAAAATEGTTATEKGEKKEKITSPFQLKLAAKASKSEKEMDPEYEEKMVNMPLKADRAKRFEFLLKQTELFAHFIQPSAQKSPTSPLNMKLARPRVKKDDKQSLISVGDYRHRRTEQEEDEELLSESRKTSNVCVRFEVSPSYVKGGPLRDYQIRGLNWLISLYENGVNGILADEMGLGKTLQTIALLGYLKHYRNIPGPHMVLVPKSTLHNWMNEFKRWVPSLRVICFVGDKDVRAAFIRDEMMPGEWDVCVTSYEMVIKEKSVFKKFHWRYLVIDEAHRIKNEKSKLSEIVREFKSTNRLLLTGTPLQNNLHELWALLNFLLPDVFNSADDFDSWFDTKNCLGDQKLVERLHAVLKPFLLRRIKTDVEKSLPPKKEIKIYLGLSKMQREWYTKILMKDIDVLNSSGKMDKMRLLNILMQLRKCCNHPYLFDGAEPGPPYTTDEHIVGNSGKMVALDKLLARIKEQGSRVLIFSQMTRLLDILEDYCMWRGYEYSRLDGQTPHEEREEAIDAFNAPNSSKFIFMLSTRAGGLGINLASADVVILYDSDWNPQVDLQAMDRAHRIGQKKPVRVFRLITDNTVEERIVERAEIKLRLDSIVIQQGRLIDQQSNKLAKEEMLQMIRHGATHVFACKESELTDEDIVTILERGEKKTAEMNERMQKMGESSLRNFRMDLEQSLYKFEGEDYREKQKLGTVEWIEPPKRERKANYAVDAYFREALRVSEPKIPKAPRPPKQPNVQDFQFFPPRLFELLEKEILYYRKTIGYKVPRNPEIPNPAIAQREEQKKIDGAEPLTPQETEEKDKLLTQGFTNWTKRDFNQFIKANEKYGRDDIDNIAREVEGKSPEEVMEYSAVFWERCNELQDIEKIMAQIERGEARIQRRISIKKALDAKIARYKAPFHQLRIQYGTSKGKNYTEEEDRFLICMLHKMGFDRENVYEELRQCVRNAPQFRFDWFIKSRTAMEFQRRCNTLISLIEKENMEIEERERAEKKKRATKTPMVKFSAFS

How the values were obtained:
Cecr2 ΔDDT-3×FLAG = Cecr2 ΔDDT-3×FLAG (UniProt E9Q2Z1); experiment: affinity purification with mass spectrometry; whole cell extracts of reprogramming cells at day 3 (50 mM Tris pH 8.0, 150 mM NaCl, 10% glycerol, 0.5% NP40); FLAG antibody or matched IgG overnight at 4 °C, Protein A/G magnetic beads, on-bead digestion, MS
Cecr2-3×FLAG = Cecr2-3×FLAG (UniProt E9Q2Z1); experiment: as above

binding (Cecr2 ΔDDT-3×FLAG): no binding
binding (Cecr2-3×FLAG): binds
Substance: SMARCA1 (from UniProt Q6PGB8 1-1046)

No constants are given. Whether binding was seen depends on the method and setting. Binding seen in cells or lysates may run through a third protein. Here binding means that the protein was enriched with, or labelled near, the bait; the list need not be complete. For some assays here: No binding means not detected with the bait.
